# Results taken from article PMC12431657, “Discovery and mechanistic insights of dibenzoylmethane as a broad spectrum inhibitor of coronavirus” (PLOS Pathogens, 2025).
# Where a name gives a salt, the structure may show the parent alone. Read-outs that look alike come from different tables or passages of the source. The whole screen tested about 3,300 compounds, of which about 95 (3%) showed an effect of 50% or more. The list shows a part of the results.
# Tested on: HCoV-229E
# Design: species or system Huh-7; HTS, protection from HCoV-229E induced cell death, luminescent cell viability (CellCounting-Lite 2.0), inhibition rate
# Conditions: 24 h post infection, 1 h compound pre-incubation, 10 µM, inhibitor
SMILES,"229E Inhibition rate (229E Inhibition rate, 24 h) [%]",229E Inhibition rate [%]
COc1ccc([C@H]2OC[C@H]3[C@@H]2CO[C@@H]3c2ccc(OC)c(OC)c2)cc1OC [Eudesmin],24,–
"COc1ccc(/C=C/C(=O)O)cc1OC [(E)-3,4-Dimethoxycinnamic acid]",9.6,–
C[C@]12C=CC(=O)C=C1CC[C@@H]1[C@@H]2[C@@H](O)C[C@@]2(C)[C@H]1CC[C@]2(O)C(=O)CO [Prednisolone],–,20.1
C/C=C(/C)C(=O)O[C@H]1[C@@H](OC(=O)CC(C)C)c2c(ccc3ccc(=O)oc23)OC1(C)C [Praeruptorin E],–,43.4
O=C(O)c1cc(=O)c2cccc(O)c2[nH]1 [Xanthurenic acid],–,9.1
CN[C@@H](C)[C@H]1[C@H](O)C[C@@]2(C)[C@@H]3CC[C@H]4C(C)(C)[C@@H](NC)CC[C@@]45C[C@@]35CC[C@]12C [Cyclovirobuxine D],–,55.2
CC1(C)OC(=O)C=C[C@]2(C)[C@H]3CC[C@@]4(C)[C@H](c5ccoc5)OC(=O)[C@H]5O[C@]54[C@]3(C)C(=O)C[C@@H]12 [Obacunone],–,19.5
CC(=O)CO [Hydroxyacetone],–,0
C=C(C)[C@@H]1CCC2=CC(=O)C[C@@H](C)[C@]2(C)C1 [Nootkatone],–,17.6
CCC/C=C1\OC(=O)C2=C1CC[C@H]1[C@H]3C=C4C(=O)O/C(=C\CCC)[C@@]4(CC3)[C@@H]21 [Levistolide A],–,60.4
O=c1cc(-c2cc(O)c(O)c(O)c2)oc2cc(O)cc(O)c12 [Tricetin],–,5.6
C[C@@H]1CC[C@@]2(NC1)O[C@H]1C[C@H]3[C@@H]4CC=C5C[C@@H](O[C@@H]6O[C@H](CO)[C@@H](O[C@@H]7O[C@@H](C)[C@H](O)[C@@H](O)[C@H]7O)[C@H](O)[C@H]6O[C@@H]6O[C@@H](C)[C@H](O)[C@@H](O)[C@H]6O)CC[C@]5(C)[C@H]4CC[C@]3(C)[C@H]1[C@@H]2C [Solamargine],–,6.1
Cc1nc2ccccc2c(=O)[nH]1 [2-Methylquinazolin-4-ol],–,43.6
OC[C@H](O)C(O)[C@@H](O)CO [L-Arabinitol],–,0
O=C1O[C@@H]2[C@@H](O)[C@H](O)[C@@H](CO)O[C@H]2c2c1cc(O)c(O)c2O [Norbergenin],–,24.1
C[C@@H]1O[C@@H](O[C@H]2[C@H](O[C@H]3CC[C@@]4(C)[C@@H](CC[C@]5(C)[C@@H]4CC=C4[C@@H]6CC(C)(C)CC[C@]6(C(=O)O[C@@H]6O[C@H](CO[C@@H]7O[C@H](CO)[C@@H](O)[C@H](O)[C@H]7O)[C@@H](O)[C@H](O)[C@H]6O)CC[C@]45C)[C@]3(C)CO)OC[C@H](O)[C@@H]2O)[C@H](O)[C@H](O[C@@H]2O[C@H](CO)[C@@H](O)[C@H](O)[C@H]2O)[C@H]1O [Macranthoidin A],–,7.7
C[C@@H]1O[C@@H](Oc2c(-c3ccc(O)c(O)c3)oc3cc(O)cc(O)c3c2=O)[C@H](O)[C@H](O)[C@H]1O [Quercitrin],–,7.3
CC(=O)OC[C@H]1O[C@@H](OC(C)=O)[C@H](OC(C)=O)[C@@H](OC(C)=O)[C@@H]1OC(C)=O [β-D-Glucose pentaacetate],–,9.5
NC(=O)CC[C@@H](N)C(=O)O [D-Glutamine],–,10.6
C[C@@]12CCc3occc3[C@H]1CC[C@@]13C[C@@H](CC[C@H]12)[C@@](O)(CO)C3 [Cafestol],–,26.2
C[C@@H]1O[C@@H](Oc2c(-c3cc(O)c(O)c(O)c3)oc3cc(O)cc(O)c3c2=O)[C@H](O)[C@H](O)[C@H]1O [Myricitrin],–,20.6
COc1cccc(-c2oc3ccccc3c(=O)c2O)c1 [3'-Methoxyflavonol],–,28.1
O=C(O)/C=C/c1ccccc1 [Cinnamic acid],21,–
N[C@@H](CS)C(=O)O [L-Cysteine],12.3,–
COC(=O)C1=CO[C@@H](O[C@@H]2O[C@H](CO)[C@@H](O)[C@H](O)[C@H]2O)[C@@H]2C(CO)=C[C@H](O)[C@H]12 [Methyl deacetylasperulosidate],–,11.6
COc1cc(C[C@H](C)[C@H](C)Cc2ccc3c(c2)OCO3)ccc1O [Macelignan],–,0
CC(=O)OC[C@]12[C@H](OC(C)=O)[C@H](OC(C)=O)[C@@H]3[C@@H](OC(C)=O)[C@@]14O[C@@]3(C)COC(=O)c1cccnc1CCC(C)C(=O)O[C@@H]([C@H](OC(=O)c1ccco1)[C@@H]2OC(C)=O)[C@]4(C)O (some centres unmarked) [Wilforgine],–,7.7

SMILES,"229E Inhibition rate (229E Inhibition rate, 24 h) [%]",229E Inhibition rate [%]
CN1CCC=C(C(=O)O)C1 [Arecaidine (hydrochloride)],34.4,–
COc1cc(/C=C/C(O)=C/C(=O)/C=C/c2ccc(O)cc2)ccc1O [Demethoxycurcumin],–,23.2
C[C@H](CC[C@@H](O[C@@H]1O[C@H](CO[C@@H]2O[C@H](CO)[C@@H](O)[C@H](O)[C@H]2O)[C@@H](O)[C@H](O)[C@H]1O)C(C)(C)O)[C@H]1CC[C@@]2(C)[C@@H]3CC=C4[C@@H](CC[C@H](O)C4(C)C)[C@]3(C)[C@H](O)C[C@]12C [Mogroside IIA1],–,19.7
Nc1ncnc2c1ncn2[C@H]1C[C@H](O)[C@@H](COP(=O)(O)OP(=O)(O)OP(=O)(O)O)O1 [2'-Deoxyadenosine-5'-triphosphate (trisodium)],–,14.8
N[C@@H](CCSSCC[C@H](N)C(=O)O)C(=O)O [L-Homocystine],–,7.2
CC/C=C\C/C=C\C/C=C\CCCCCCCC(=O)OCC [Ethyl linolenate],–,15.9
CC1(C)Oc2cc3oc(-c4cc(O)cc(O[C@@H]5OC[C@@H](O)[C@H](O)[C@H]5O)c4)cc3cc2CC1O (some centres unmarked) [Mulberroside C],–,0
"O=C(/C=C/c1ccc(O)c(O)c1)O[C@H]1[C@H](O)C[C@](O)(C(=O)O)C[C@H]1OC(=O)/C=C/c1ccc(O)c(O)c1 [3,4-Dicaffeoylquinic acid]",–,7.5
O=Cc1ccc(CO)o1 [5-Hydroxymethylfurfural],–,7.6
CCCCCCc1cccs1 [2-Hexylthiophene],–,6.8
COc1cc(-c2coc3cc(O)c(OC)c(O)c3c2=O)cc(O)c1OC [Irigenin],–,11.4
"OC[C@H]1O[C@@](CO)(OC[C@@]2(OC[C@@]3(OC[C@@]4(OC[C@@]5(O[C@H]6O[C@H](CO)[C@@H](O)[C@H](O)[C@H]6O)O[C@H](CO)[C@@H](O)[C@@H]5O)O[C@H](CO)[C@@H](O)[C@@H]4O)O[C@H](CO)[C@@H](O)[C@@H]3O)O[C@H](CO)[C@@H](O)[C@@H]2O)[C@@H](O)[C@@H]1O [1,1,1,1-Kestohexaose]",–,11.2
O=C(O)CCCCCCC(=O)O [Suberic acid],–,0
O=c1c2cc(O[C@@H]3O[C@H](CO)[C@@H](O)[C@H](O)[C@H]3O)c(O)cc2oc2cc(O)c([C@@H]3O[C@H](CO)[C@@H](O)[C@H](O)[C@H]3O)c(O)c12 [Neomangiferin],–,22.1
C[C@@H](CO)CCC[C@@H](C)[C@H]1CC[C@H]2[C@@H]3CC=C4C[C@@H](O)CC[C@]4(C)[C@H]3CC[C@]12C [27-Hydroxycholesterol],–,8.1
COC(=S)NCc1ccc(O[C@@H]2O[C@@H](C)[C@H](O)[C@@H](O)[C@H]2O)cc1 [Niazinin],–,11.1
COc1cc(O)cc2oc(-c3ccc(O)c(O)c3)c(O)c(=O)c12 [Azaleatin],–,12.4
CCCCC[C@H](O)/C=C/[C@@H]1[C@@H](C/C=C\CCCC(=O)O)[C@@H](O)C[C@H]1O [Dinoprost],–,23.2
O=c1cc(-c2ccc(O)cc2)oc2c([C@@H]3OC[C@@H](O)[C@H](O)[C@H]3O)c(O)c([C@@H]3O[C@H](CO)[C@@H](O)[C@H](O)[C@H]3O)c(O)c12 [Vicenin 3],–,40.7
CC(C)=CCC[C@](C)(O[C@@H]1O[C@H](CO[C@@H]2O[C@@H](CO)[C@H](O)[C@H]2O)[C@@H](O)[C@H](O)[C@H]1O)[C@H]1CC[C@]2(C)[C@@H]1[C@H](O)C[C@@H]1[C@@]3(C)CC[C@H](O[C@@H]4O[C@H](CO)[C@@H](O)[C@H](O)[C@H]4O[C@@H]4O[C@H](CO)[C@@H](O)[C@H](O)[C@H]4O)C(C)(C)[C@@H]3CC[C@]12C [Ginsenoside Rc],–,12.8
CC(C)=CC(O)C/C(C)=C/COc1c2ccoc2cc2oc(=O)ccc12 (centres unmarked) [Notopterol],–,25
O=c1[nH]cnc2c1ncn2[C@H]1C[C@H](O)[C@@H](CO)O1 [2'-Deoxyinosine],–,16.4
CCCCCCCCCCC(=O)O [Undecanoic acid],–,5.6
C[C@@H]1O[C@@H](Oc2cc(O)c3c(=O)c(O)c(-c4ccc(O)c(O)c4)oc3c2)[C@H](O)[C@H](O)[C@H]1O [Vincetoxicoside B],–,12.7
C/C=C1/[C@H](O[C@@H]2O[C@H](CO)[C@@H](O)[C@H](O)[C@H]2O)OC=C(C(=O)OC)[C@H]1CC(=O)OCCc1ccc(O)c(O)c1 [Oleuropein],–,11.8
CC(CC(=O)C[C@@H](C)[C@H]1CC(=O)[C@@]2(C)C3=C(C(=O)[C@@H](O)[C@]12C)[C@@]1(C)CC[C@H](O)C(C)(C)[C@@H]1C[C@@H]3O)C(=O)O (some centres unmarked) [Ganoderic acid G],–,18.6

# No new results follow: an excerpt of the list.
SMILES,"229E Inhibition rate (229E Inhibition rate, 24 h) [%]",229E Inhibition rate [%]
COc1cc(-c2coc3cc(O)c(OC)c(O)c3c2=O)cc(O)c1OC [Irigenin],–,11.4
"OC[C@H]1O[C@@](CO)(OC[C@@]2(OC[C@@]3(OC[C@@]4(OC[C@@]5(O[C@H]6O[C@H](CO)[C@@H](O)[C@H](O)[C@H]6O)O[C@H](CO)[C@@H](O)[C@@H]5O)O[C@H](CO)[C@@H](O)[C@@H]4O)O[C@H](CO)[C@@H](O)[C@@H]3O)O[C@H](CO)[C@@H](O)[C@@H]2O)[C@@H](O)[C@@H]1O [1,1,1,1-Kestohexaose]",–,11.2
O=C(O)CCCCCCC(=O)O [Suberic acid],–,0
